According to article PMC10038804:
These are yes or no findings as the source states them, for the method shown. Binding seen in cells or lysates may run through a third protein. Some results given as binding are weak or reduced against the parent protein; the word gives no strength.

Chains of the proteins cited; added tags and fusions are not shown.
UniProt O00327: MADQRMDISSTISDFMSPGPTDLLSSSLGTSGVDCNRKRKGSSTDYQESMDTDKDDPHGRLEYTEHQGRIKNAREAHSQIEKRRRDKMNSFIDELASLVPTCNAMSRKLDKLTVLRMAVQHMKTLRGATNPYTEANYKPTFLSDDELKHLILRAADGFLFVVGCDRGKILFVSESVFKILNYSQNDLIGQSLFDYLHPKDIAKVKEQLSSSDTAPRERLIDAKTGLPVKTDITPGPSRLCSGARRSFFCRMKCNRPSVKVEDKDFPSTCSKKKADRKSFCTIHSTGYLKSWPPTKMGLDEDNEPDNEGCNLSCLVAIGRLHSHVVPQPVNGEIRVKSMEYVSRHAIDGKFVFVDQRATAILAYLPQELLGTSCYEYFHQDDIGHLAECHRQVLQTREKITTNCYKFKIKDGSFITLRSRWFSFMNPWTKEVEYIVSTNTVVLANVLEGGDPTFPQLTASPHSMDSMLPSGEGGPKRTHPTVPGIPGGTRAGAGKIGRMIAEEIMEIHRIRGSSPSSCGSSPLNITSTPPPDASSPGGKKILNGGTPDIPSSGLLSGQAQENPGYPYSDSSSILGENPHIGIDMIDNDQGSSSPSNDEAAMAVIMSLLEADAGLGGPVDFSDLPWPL

Target: Flag-Wild type BMAL1 (human (cDNA from MRC5 mRNA)) (UniProt O00327)
Test: co-IP; lysates of HEK293T cells overexpressing Flag-BMAL1 (WT or S183A), treated with Zeocin or DMSO/control; precipitated with anti-Flag beads; immunoblot

B1: CLOCK (protein, UniProt O15516 1-846)
chain: MLFTVSCSKMSSIVDRDDSSIFDGLVEEDDKDKAKRVSRNKSEKKRRDQFNVLIKELGSMLPGNARKMDKSTVLQKSIDFLRKHKEITAQSDASEIRQDWKPTFLSNEEFTQLMLEALDGFFLAIMTDGSIIYVSESVTSLLEHLPSDLVDQSIFNFIPEGEHSEVYKILSTHLLESDSLTPEYLKSKNQLEFCCHMLRGTIDPKEPSTYEYVKFIGNFKSLNSVSSSAHNGFEGTIQRTHRPSYEDRVCFVATVRLATPQFIKEMCTVEEPNEEFTSRHSLEWKFLFLDHRAPPIIGYLPFEVLGTSGYDYYHVDDLENLAKCHEHLMQYGKGKSCYYRFLTKGQQWIWLQTHYYITYHQWNSRPEFIVCTHTVVSYAEVRAERRRELGIEESLPETAADKSQDSGSDNRINTVSLKEALERFDHSPTPSASSRSSRKSSHTAVSDPSSTPTKIPTDTSTPPRQHLPAHEKMVQRRSSFSSQSINSQSVGSSLTQPVMSQATNLPIPQGMSQFQFSAQLGAMQHLKDQLEQRTRMIEANIHRQQEELRKIQEQLQMVHGQGLQMFLQQSNPGLNFGSVQLSSGNSSNIQQLAPINMQGQVVPTNQIQSGMNTGHIGTTQHMIQQQTLQSTSTQSQQNVLSGHSQQTSLPSQTQSTLTAPLYNTMVISQPAAGSMVQIPSSMPQNSTQSAAVTTFTQDRQIRFSQGQQLVTKLVTAPVACGAVMVPSTMLMGQVVTAYPTFATQQQQSQTLSVTQQQQQQSSQEQQLTSVQQPSQAQLTQPPQQFLQTSRLLHGNPSTQLILSAAFPLQQSTFPQSHHQQHQSQQQQQLSRHRTDSLPDPSKVQPQ
**Q.** With B1 as the binder, how does the binding read?
**A.** The binding was “binds”.
